## Percent effect of library compounds

The chains behind the UniProt entries cited, without tags or fusion partners. Residues count along the entry.
UniProt Q4DA54, 1-478: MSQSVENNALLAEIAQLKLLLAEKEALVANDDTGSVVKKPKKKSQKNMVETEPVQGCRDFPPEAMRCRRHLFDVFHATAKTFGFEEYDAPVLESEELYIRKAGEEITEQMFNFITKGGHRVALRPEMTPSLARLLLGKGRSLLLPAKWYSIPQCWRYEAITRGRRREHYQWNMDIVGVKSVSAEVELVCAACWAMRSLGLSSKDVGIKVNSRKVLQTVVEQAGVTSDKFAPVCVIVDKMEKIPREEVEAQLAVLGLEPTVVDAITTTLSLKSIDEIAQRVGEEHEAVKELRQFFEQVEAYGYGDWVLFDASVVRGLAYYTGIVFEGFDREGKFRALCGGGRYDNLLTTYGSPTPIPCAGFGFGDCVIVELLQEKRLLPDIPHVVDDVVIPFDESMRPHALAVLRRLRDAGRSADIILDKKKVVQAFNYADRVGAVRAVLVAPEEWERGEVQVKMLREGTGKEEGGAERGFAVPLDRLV
UniProt P9WPC5, whole entry: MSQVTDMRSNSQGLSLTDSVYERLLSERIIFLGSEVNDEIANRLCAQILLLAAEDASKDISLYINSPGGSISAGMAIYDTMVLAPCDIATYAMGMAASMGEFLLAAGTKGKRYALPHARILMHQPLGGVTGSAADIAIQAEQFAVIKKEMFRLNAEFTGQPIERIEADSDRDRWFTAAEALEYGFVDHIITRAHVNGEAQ
UniProt P9WPC3, whole entry partner: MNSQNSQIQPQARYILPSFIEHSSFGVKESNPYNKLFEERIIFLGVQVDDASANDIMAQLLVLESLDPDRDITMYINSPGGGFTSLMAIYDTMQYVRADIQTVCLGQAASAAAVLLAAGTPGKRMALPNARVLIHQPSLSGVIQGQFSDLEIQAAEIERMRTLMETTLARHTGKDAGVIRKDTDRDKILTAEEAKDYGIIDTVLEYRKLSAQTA
UniProt Q8IDJ8, 1-583: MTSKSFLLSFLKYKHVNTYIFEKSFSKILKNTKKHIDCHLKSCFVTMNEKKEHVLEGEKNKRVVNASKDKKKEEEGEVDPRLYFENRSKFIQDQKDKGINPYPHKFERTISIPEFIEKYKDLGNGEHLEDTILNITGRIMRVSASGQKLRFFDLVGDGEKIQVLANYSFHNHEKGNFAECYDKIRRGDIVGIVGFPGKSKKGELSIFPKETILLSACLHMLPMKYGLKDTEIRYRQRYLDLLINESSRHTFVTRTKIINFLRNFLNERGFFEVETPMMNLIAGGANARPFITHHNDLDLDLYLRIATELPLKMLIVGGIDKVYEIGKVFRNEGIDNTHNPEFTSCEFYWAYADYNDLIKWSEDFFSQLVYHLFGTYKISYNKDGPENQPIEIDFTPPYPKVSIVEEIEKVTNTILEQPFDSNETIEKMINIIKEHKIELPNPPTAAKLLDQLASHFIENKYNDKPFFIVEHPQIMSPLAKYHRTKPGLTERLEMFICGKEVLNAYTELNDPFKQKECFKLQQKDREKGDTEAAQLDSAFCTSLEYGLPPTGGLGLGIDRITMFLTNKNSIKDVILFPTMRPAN
UniProt A4I591, 1-473: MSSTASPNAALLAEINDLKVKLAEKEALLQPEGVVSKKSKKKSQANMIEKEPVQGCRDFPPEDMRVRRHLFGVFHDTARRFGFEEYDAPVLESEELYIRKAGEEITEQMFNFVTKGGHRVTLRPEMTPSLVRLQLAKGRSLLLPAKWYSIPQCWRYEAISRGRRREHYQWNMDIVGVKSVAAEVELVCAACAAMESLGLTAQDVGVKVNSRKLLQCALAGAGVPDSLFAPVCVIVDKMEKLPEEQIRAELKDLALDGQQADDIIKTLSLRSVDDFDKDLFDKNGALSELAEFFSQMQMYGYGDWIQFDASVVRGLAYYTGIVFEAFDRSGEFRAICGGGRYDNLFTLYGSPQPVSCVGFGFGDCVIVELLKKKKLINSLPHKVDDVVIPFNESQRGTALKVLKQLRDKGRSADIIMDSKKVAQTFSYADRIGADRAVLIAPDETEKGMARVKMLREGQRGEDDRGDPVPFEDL

Data taken from ChEMBL document CHEMBL3988442, “University of Dundee, Small-Polar-MMV Screening Library” (2021).

Results are given as percent effect. How 0% and 100% were set is not recorded. Most values in the screen are low, and negative values occur. Compounds were drawn at random from those tested, without regard to their results.

TcHisRS: 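Histidine-tRNA ligase, Trypanosoma cruzi CL Brener (UniProt Q4DA54). Enzyme assay of histidyl-tRNA synthetase; the read-out is not stated. Concentration: 30 µM. Direction is inferred from retests: higher values go with stronger inhibition. About 69,000 compounds were tested under these conditions; 0.045% (about 31) showed 50% or more at least once.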
ClpP1P2: 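Protease assay of ClpP1P2, read by the AMC dye that it sets free. Target: ClpP1P2, Mycobacterium tuberculosis (UniProt P9WPC5 and UniProt P9WPC3). Compounds at 50 µM. Direction is inferred from only a few compounds that gave an IC50; most scored high, so higher reads as stronger inhibition. Most other retested compounds had strongly negative values. About 69,000 compounds were tested under these conditions; 0.015% (about 10) showed 50% or more at least once.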
PfKRS1: 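Enzyme assay of the cytosolic lysyl-tRNA synthetase in 384-well plates, read by luminescence. Target: Lysine-tRNA ligase, Plasmodium falciparum 3D7 (UniProt Q8IDJ8). Tested at 30 µM. Higher reads as stronger inhibition, judged from the few compounds that gave an IC50. About 69,000 compounds were tested under these conditions; 0.071% (about 49) showed 50% or more at least once.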
LiHisRS: 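Enzyme assay of histidyl-tRNA synthetase; the read-out is not stated. Target: Histidine-tRNA ligase, Leishmania infantum (UniProt A4I591). Compounds at 30 µM. The record gives no direction; compounds that gave an IC50 in retests scored well above the rest, so higher reads as stronger inhibition. The assay is labelled LdHisRS but filed under L. infantum. Size under these conditions: about 69,000 compounds, about 410 of them at 50% or above in at least one test.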

| Compound | TcHisRS | ClpP1P2 | PfKRS1 | LiHisRS |
|---|---|---|---|---|
| `CN(C)c1nccc(C2CCCN(C(=O)CO)C2)n1` (configuration not stated) | 6.844 | -2.998 | 0.09116 | 8.966 |
| `CCSCc1ccnc(NC(=O)C2CCCO2)c1` (configuration not stated) | 5.682 | -2.382 | 0.2038 | 8.333 |
| `Cc1cc(C(=O)Nc2cccn(Cc3ccccc3)c2=O)no1` | 2.212 | -10.1 | 2.507 | 23.89 |
| `Cc1nccc(N[C@H]2CN(C(=O)CN3CCCC3=O)C[C@@H]2C(C)C)n1` | 4.327 | -14.4 | -5.239 | 2.439 |
| `Cn1cc(C2CC3(CCN(C(=O)c4ccsc4)CC3)NC2=O)cn1` (configuration not stated) | 0 | 8.186 | 3.945 | 11.5 |
| `Cc1nn(C)c2nc(N(C)CCN(C)C3CCCC3)sc12` | 5.732 | 3.769 | -0.8124 | 12.68 |
| `Cc1nc(CN2CCN(c3ncnc4ccccc34)CC2)no1` | 6.548 | -12.6 | 0.7247 | 16.13 |
| `CCOC(=O)C1CCN(C(=O)Cc2c(C)nc(C)[nH]c2=O)CC1` | -0.4926 | 3.674 | 5.437 | 24.68 |
| `CCC1CCCCCN1C(=O)c1cc(C#N)c(SC)[nH]c1=O` (configuration not stated) | 4.95 | 6.606 | -3.294 | 2.381 |
| `c1ccc2sc(CN3CCCC3c3noc(C4CC4)n3)nc2c1` (configuration not stated) | 7.28 | 7.1 | 2.666 | 21.54 |
| `COCCCNC(=O)c1cc(C(C)C)nc(N2CCCC2)n1` | 0.8696 | 6.795 | 0.7961 | 13.79 |
| `Cc1cccc(N2CCCC3(C2)CN(S(=O)(=O)C2CC2)CCO3)c1` (configuration not stated) | 5.747 | -8.922 | 0.05714 | 14 |
| `CN(C)C(=O)NC1COC2(CCN(S(=O)(=O)c3ccccc3)CC2)C1` (configuration not stated) | 6.897 | -1.375 | 0 | 11.76 |
| `Fc1ccc(CNCc2nnc3n2CC(C(F)(F)F)CC3)c(F)c1` (configuration not stated) | -1.205 | -16.32 | 4.301 | 15.38 |
| `Cc1cc(C)n(C2CN(C(=O)Cn3c(=O)c(C)nc4ccccc43)C2)n1` | 2.469 | -0.3712 | 0.2027 | 17.2 |
| `COC(=O)c1cccc(NC(=O)CCn2nc(-c3cccs3)oc2=O)c1` | 2.682 | 9.759 | -2.815 | 9.231 |
| `Cc1nc(NC(=O)C(C)N2CCN(c3cnccn3)CC2)sc1C` (configuration not stated) | 4.082 | 3.657 | 3.347 | 13.89 |
| `CCn1cc(NC(=O)C2CCN(CC(=O)NCC(C)C)CC2)cn1` | 6.358 | -37.13 | 1.776 | 15.18 |
| `N#Cc1ccc(S(=O)(=O)Nc2cnn(C3CCOCC3)c2)cc1` | 5.528 | -4.021 | 4.663 | 15.73 |
| `Cc1nc(C)n(C2CCCN(C(=O)c3ncoc3C(C)C)C2)n1` (configuration not stated) | 2.035 | -11.36 | -0.6705 | 11.4 |
| `CCOc1ccc(-c2ccc3c(c2)OCO3)cc1C(N)=O` | 2.463 | -1.044 | 3.705 | 9.211 |
| `NC(=O)CN1CCC(C(=O)N2CCCC(OCc3cccnc3)C2)CC1` (configuration not stated) | 5.785 | -2.756 | 2.107 | 19.05 |
| `CCOc1ccc(Cl)c(C(=O)N2CCN(c3ccncc3)CC2)n1` | 5.747 | 0.04246 | -0.4648 | 13.91 |
| `Cc1ccc(CCCC(=O)N2CCC(=O)Nc3cccnc32)s1` | 9.091 | 10.61 | 0.568 | 15.56 |
| `Cc1cc(N(Cc2ccon2)S(C)(=O)=O)ccc1Br` | 2.762 | 2.983 | -5.323 | 1.042 |
| `COCc1cccc(CNCc2c(C)nn(C)c2N2CCOCC2)c1` | 6.706 | -63.52 | 2.113 | 15.04 |
| `Cc1nn(C)c(C)c1-c1cncc(C2CCN(S(C)(=O)=O)CC2)n1` | 3.825 | -3.383 | 1.847 | 2.19 |
| `CN(CCc1ccccn1)c1cc(N2CCCCC2)ncn1` | 1.961 | -8.991 | 3.282 | 4.8 |
| `CCC(=O)Nc1ccc2c(c1)CN(C(=O)c1ccco1)CC2` | 5.435 | 3.895 | -10.72 | 10.68 |
| `O=C(c1nnn(-c2ccccc2F)c1-c1ccccn1)N1CCSCC1` | 5.155 | -1.289 | 5.466 | 12.17 |
| `CN(C)CCN1CC(C(=O)NCc2cn3cccnc3n2)CC1=O` (configuration not stated) | 3.865 | -47.71 | -0.2656 | 9.167 |
| `O=C(NC1CC1)N1CCC2(CC1)CC(N1CCOCC1)c1ccccc12` (configuration not stated) | -1.031 | 3.239 | 7.2 | 10 |
| `Cc1nn(C)cc1CCC(=O)N1CCCC(n2cncn2)C1` (configuration not stated) | -3.396 | -4.134 | 5.85 | 14.86 |
| `Cc1ccc(OCC(O)CNC(=O)C2(c3ccc(F)cc3)CC2)cc1` (configuration not stated) | 0 | -12.43 | 0.159 | 6.667 |
| `CSCc1cc(F)ccc1CNC(=O)N1CCOCC1` | 1.064 | -3.637 | -2.527 | 7.143 |
| `Cc1cccc(OCCC(=O)N2CCN(S(=O)(=O)N(C)C)CC2)c1C` | -1.504 | 14.22 | 7.549 | -12.36 |
| `O=c1c(Cc2ccc(Cl)cc2Cl)c(O)ccn1CC1CC1` | 15.62 | -8.001 | 4.31 | 12.5 |
| `Cc1ncc(-c2ccnc(N3CCN(C)CC3)n2)c(-c2cccnc2)n1` | 3.396 | -10.39 | 6.329 | 6.757 |
| `CCOCC1CN(S(=O)(=O)N(C)C)Cc2cnn(C)c21` (configuration not stated) | 6.612 | -1.849 | 4.311 | 11.43 |
| `CN(Cc1cccs1)Cc1nnsc1Cl` | 4.348 | -4.878 | -0.1671 | 10 |
| `COCC1CN(C(=O)Nc2cc(Cl)ccc2F)CCO1` (configuration not stated) | 1.724 | -1.418 | 2.65 | 4.386 |
| `c1cc(CN2CCCC23CCCN(Cc2ccoc2)C3)ccn1` (configuration not stated) | -1.075 | -0.9539 | -0.2987 | 10.53 |
| `O=C(Cn1ccc2ccccc21)N1CCC(Oc2ncccc2Br)CC1` | 0 | -6.041 | 3.927 | 3.478 |
| `CC(C)c1nc2n(n1)CC(NCc1cc3ccccc3o1)CC2` (configuration not stated) | 9.877 | 1.572 | 4.019 | 13.73 |
| `Cc1ccc(C(=O)N2CCO[C@H]3[C@H](OCc4ccccn4)CC[C@@H]32)o1` | 12.02 | -7.755 | -0.4419 | 19.3 |
| `CC(C)(C)c1ncc(C(=O)NCCSc2ccccn2)c(O)n1` | 1.948 | 14.61 | -3.347 | 14.52 |

3 of the entries, repeated:

Compound	TcHisRS	ClpP1P2	PfKRS1	LiHisRS
Cc1nn(C)cc1CCC(=O)N1CCCC(n2cncn2)C1 (configuration not stated)	-3.396	-4.134	5.85	14.86
O=C(Cn1ccc2ccccc21)N1CCC(Oc2ncccc2Br)CC1	0	-6.041	3.927	3.478
CCC1CCCCCN1C(=O)c1cc(C#N)c(SC)[nH]c1=O (configuration not stated)	4.95	6.606	-3.294	2.381